Reference: PubChem BioAssay AID720513 (Broad Institute, 2013)
Screen size: about 2,100 compounds; about 480 (23%) were called active. The inconclusive results got no clear call from the source; some entries with a clear call stand among them for comparison.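 How the source made its calls: active means fitted curve reaches 40% activation at or below the top valid concentration, in every replicate test; inconclusive means replicate tests disagree on the call; inactive means the rest, including activity in the opposite direction.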

Assay: activators raising PGC1a acetylation in cells, dose response, cell-based, cherry-picked samples, set 6 (AID 720513);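 further: cells made to overexpress flag tagged PGC1a plus GCN5 acetyltransferase by viral infection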
Conditions: U2OS PGC1a acetylation AlphaLISA, overnight, 0 = neutral, -100 = inhibitor control; at 19.5 µM (top of the series) unless noted

Compound | activation (acetylation increase)
CC1=C(C(N)=O)C(c2cccnc2)n2nc(-c3cccc(Cl)c3)nc2N1 (stereo not drawn) | inconclusive: 224%
O=C(C[C@H]1CC[C@H](NC(=O)NC2CCCCC2)[C@H](CO)O1)NCc1ccc(Cl)cc1 | inconclusive: 39.8%
COc1ccccc1CN1CCCC(C(=O)N(C)Cc2ccccc2)C1 (stereo not drawn) | inconclusive: 56.3% [at 10 µM]
C[C@H]1CN([C@@H](C)CO)S(=O)(=O)c2ccc(C#Cc3cccnc3)cc2O[C@@H]1CN(C)CC1CCOCC1 | inactive: 32.6%
CCCCCn1c(=N)n(CC(O)COc2ccccc2OC)c2ccccc21 (stereo not drawn) | inconclusive: 8.74%
COc1ccccc1NC(=O)N1C[C@@H]2N[C@H](C1)C2c1ccc(/C=C/c2ccccc2)cc1 (stereo partly drawn) | inconclusive: 42.9% [at 10 µM]
CC(C)NC(=O)NCC[C@H]1CC[C@H](NC(=O)c2ccc(F)cc2)[C@H](CO)O1 | inconclusive: 28.9%
C[C@@H]1CN([C@@H](C)CO)C(=O)CCCn2nncc2CO[C@H]1CN(C)CC1CCCCC1 | inconclusive: 29.3%
COc1ccc(S(=O)(=O)N(C)C[C@@H]2Oc3ccc(NC(=O)CCN4CCOCC4)cc3C(=O)N([C@H](C)CO)C[C@H]2C)cc1 | inconclusive: 22.6%
CN1OC(COC(=O)c2ccccc2)CC1c1ccccc1 (stereo not drawn) | inconclusive: 23.1%
C[C@H]1CN([C@@H](C)CO)S(=O)(=O)c2ccc(-c3cncnc3)cc2O[C@H]1CN(C)C(=O)CN(C)C | inconclusive: 47.6% [at 10 µM]
CNC[C@H]1OCCCC[C@@H](C)Oc2ccc(NS(=O)(=O)c3ccccc3)cc2C(=O)N([C@H](C)CO)C[C@@H]1C | inconclusive: 48.2% [at 21 µM]
CC(C)(C)NC(=O)Cn1nnc(-c2ccc(OCc3c(F)cccc3Cl)cc2)n1 | inconclusive: 18.5%
Cn1ncc(C(=O)Nc2ccc(Cl)cc2)c1C(F)(F)F | inconclusive: 17.4%
COc1ccc(CC(CC(=O)O)C(=O)Nc2ccc(OC)cc2)cc1 (stereo not drawn) | inconclusive: 32.5%
COCCNC(=O)c1ccc(C)cc1C | inconclusive: 24.6%
CC(=O)c1ccc(NC(=O)CSCC(=O)Nc2ccc3ccccc3c2)cc1 | inconclusive: 32.2%
COC(=O)COc1c(/C=C\c2nc(O)c([N+](=O)[O-])c(=O)[nH]2)cccc1OC | inactive: 7.96%
C[C@H](CO)N1C[C@H](C)[C@@H](CN(C)C(=O)c2ccccn2)Oc2ncc(-c3cccc(C#N)c3)cc2C1=O | inactive: 1.18%

Compound | activation (acetylation increase)
CO[C@@H]1CN(C)C(=O)c2cc(NC(=O)c3ccc4c(c3)OCO4)ccc2OC[C@@H](C)N(CC2CC2)C[C@H]1C | inconclusive: 17.3% [at 21 µM]
CCC(=O)Nc1ccc2c(c1)OC[C@@H](C)N(C(=O)c1cnccn1)C[C@H](C)[C@H](OC)CN(C)C2=O | inconclusive: 30.5%
O=C(Cc1cccc(NC(=O)C2CCN(C(=O)c3ccccc3)CC2)c1)Nc1cccc(C(=O)N2CCCCC2)c1 | inactive: 2.11%
COc1ccc(-n2c(SCC#N)nnc2-c2cccnc2)cc1 | inactive: -52.4%
Cc1ccc(N2CC(C(=O)Nc3ccc(C)c(S(=O)(=O)N(C)C)c3)CC2=O)cc1 (stereo not drawn) | inconclusive: -18.7%
C[C@H]1CN([C@@H](C)CO)C(=O)CCCn2cc(nn2)CO[C@H]1CN(C)S(=O)(=O)c1ccc(Cl)cc1 | inconclusive: 24.9% [at 21 µM]
CC(Sc1nnc(N)s1)C(=O)Nc1ccc2c(c1)OCO2 (stereo not drawn) | inactive: -0.09%
C/C(N)=C(/C#N)C(=O)COc1ncnc2ccc(Br)cc12 | inconclusive: 15.4%
COc1cc(/C=C2\SC(=O)NC2=O)ccc1Oc1ccc([N+](=O)[O-])cn1 | inconclusive: 54%
CCCSCC(=O)Nc1ncc2c(n1)-c1ccccc1CC2 | inactive: -13.2%
CC(C)(C)OC(=O)N1CCCC(C(=O)Nc2cccc(C(=O)NCc3ccccc3)c2)C1 (stereo not drawn) | inactive: 8.42%
O=C(O)c1cc(N2CCCCC2)ccn1 | inactive: 4.78%
Cc1ccc(NNC(=O)C(O)(c2cccc(C(F)(F)F)c2)c2cccc(C(F)(F)F)c2)cc1 | inconclusive: -78.2%
O=C(Nc1ccc(F)cc1)N1CC(=O)N2[C@@H](CO)[C@H](c3ccc(Br)cc3)[C@@H]2C1 | inconclusive: 29% [at 21 µM]
Cc1ccc(OCC(=O)N2CC(C)OC(C)C2)c([N+](=O)[O-])n1 (stereo not drawn) | inconclusive: 44.5% [at 10 µM]
O=C(CC1CC1)N[C@H]1CC[C@H](CCNS(=O)(=O)c2ccc(Cl)cc2)O[C@H]1CO | inconclusive: 42.8%
CCOc1ccc(N(CC(=O)Nc2ccccc2OC)S(=O)(=O)c2ccccc2)cc1 | inactive: -19.4%
CC(=O)NC(c1cccc(F)c1)c1nc(-c2cccc(C(C)C)c2)cs1 (stereo not drawn) | inconclusive: 41%
CCCN(CCC)CCNC(=O)c1cc2c(=O)n(CC)c3ccccc3c2s1 | inconclusive: 37.5%

Taken from above:
In activation (acetylation increase), `CCCN(CCC)CCNC(=O)c1cc2c(=O)n(CC)c3ccccc3c2s1` has inconclusive: 37.5%
In activation (acetylation increase), `C[C@H]1CN([C@@H](C)CO)C(=O)CCCn2cc(nn2)CO[C@H]1CN(C)S(=O)(=O)c1ccc(Cl)cc1` has inconclusive: 24.9% [at 21 µM]
